From paper PMC10093951
No constants are given. Whether binding was seen depends on the method and setting. Binding seen in cells or lysates may run through a third protein. Some entries that bind do so weakly or less than the wild type.

Amino acid sequences for entries named in this document (tags omitted).
UniProt P30536: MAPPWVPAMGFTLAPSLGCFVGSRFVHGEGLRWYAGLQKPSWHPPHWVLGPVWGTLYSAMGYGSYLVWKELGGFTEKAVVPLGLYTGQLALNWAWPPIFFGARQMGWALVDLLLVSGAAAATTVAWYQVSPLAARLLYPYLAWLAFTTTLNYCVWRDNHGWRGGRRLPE
UniProt Q5BJF2: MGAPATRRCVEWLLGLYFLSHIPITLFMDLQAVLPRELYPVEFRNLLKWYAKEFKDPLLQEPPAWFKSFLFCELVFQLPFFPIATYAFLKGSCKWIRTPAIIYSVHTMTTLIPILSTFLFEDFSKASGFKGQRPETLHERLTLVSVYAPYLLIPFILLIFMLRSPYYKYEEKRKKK

Columns and labels:
[1] = biological target: translocator protein (TSPO) (human (endogenous in MCF7 and MIA PaCa-2)) (UniProt P30536); test: proximity ligation; Duolink PLA in fixed (3.6% paraformaldehyde), permeabilised MIA PaCa-2 (MP) cells; primary antibodies 1:100 overnight at 4 °C; PGRMC1 detected by anti-HA on exogenous PGRMC1-HA; controls: TSPO attenuation, no primary antibodies
[2] = biological target: translocator protein (TSPO) (human (endogenous in MCF7 and MIA PaCa-2)) (UniProt P30536); test: co-IP; MIA PaCa-2 (MP) cell lysates in low-stringency lysis buffer (100 mM NaCl, 0.5% NP-40, 50 mM HEPES pH 7.5); anti-TSPO antibody with protein A/G PLUS agarose, 4 °C 2 h; Western blot with anti-TMEM97 or anti-PGRMC1; IgG as negative control; cells untreated or treated with 20S-OHC (24 h), 10 μM siramesine oxalate or FA10 (2 h)
[3] = biological target: translocator protein (TSPO) (human (endogenous in MCF7 and MIA PaCa-2)) (UniProt P30536); test: co-IP; MCF7 and shTMEM97MCF7 (TMEM97 knock-down) cell lysates in low-stringency lysis buffer (100 mM NaCl, 0.5% NP-40, 50 mM HEPES pH 7.5); anti-TSPO antibody with protein A/G PLUS agarose, 4 °C 2 h; Western blot with anti-TMEM97 or anti-PGRMC1; IgG as negative control

Measured: binding

transmembrane protein 97 (TMEM97) (from UniProt Q5BJF2 1-176)
binds: all assays above
